No constants are given. Whether binding was seen depends on the method and setting. In cells and extracts the contact can be indirect. These calls come from enrichment with a bait or labelling near it, and not all partners need be listed. Tags and fused reporters may be left off the sequences shown.
T1: SHMT2-BirA*-Flag (mouse) (UniProt Q9CZN7)
T1 sequence: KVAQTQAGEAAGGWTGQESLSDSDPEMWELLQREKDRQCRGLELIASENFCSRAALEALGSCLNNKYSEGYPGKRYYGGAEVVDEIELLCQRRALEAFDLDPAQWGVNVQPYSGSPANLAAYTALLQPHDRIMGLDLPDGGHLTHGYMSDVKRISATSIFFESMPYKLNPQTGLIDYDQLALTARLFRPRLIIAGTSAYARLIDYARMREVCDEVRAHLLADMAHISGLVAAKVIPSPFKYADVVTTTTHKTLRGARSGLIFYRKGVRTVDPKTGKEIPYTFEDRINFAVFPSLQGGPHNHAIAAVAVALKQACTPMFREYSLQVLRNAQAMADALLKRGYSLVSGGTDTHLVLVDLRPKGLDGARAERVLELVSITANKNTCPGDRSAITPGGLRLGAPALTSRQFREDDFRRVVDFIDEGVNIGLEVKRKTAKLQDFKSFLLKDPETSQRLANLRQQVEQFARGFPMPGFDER

By UniProt entry, the sequences of proteins in these tests, tags left out. Residues count along the entry.
UniProt Q9NWU1, residues 28-459: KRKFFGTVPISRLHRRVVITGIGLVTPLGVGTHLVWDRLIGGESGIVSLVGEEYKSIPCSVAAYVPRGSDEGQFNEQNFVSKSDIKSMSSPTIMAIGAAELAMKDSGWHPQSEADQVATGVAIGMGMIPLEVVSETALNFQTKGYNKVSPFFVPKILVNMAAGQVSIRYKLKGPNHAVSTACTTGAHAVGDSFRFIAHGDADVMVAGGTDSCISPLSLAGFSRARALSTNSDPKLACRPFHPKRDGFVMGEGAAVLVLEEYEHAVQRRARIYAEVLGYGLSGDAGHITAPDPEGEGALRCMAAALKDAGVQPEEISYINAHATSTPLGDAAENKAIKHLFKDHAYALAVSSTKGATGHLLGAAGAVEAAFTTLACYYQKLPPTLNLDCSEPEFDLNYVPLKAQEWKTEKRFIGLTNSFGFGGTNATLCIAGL
UniProt P61604: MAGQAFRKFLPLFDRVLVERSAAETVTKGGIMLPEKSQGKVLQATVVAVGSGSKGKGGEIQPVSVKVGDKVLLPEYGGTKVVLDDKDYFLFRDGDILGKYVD
UniProt Q9Y4W6, residues 67-797: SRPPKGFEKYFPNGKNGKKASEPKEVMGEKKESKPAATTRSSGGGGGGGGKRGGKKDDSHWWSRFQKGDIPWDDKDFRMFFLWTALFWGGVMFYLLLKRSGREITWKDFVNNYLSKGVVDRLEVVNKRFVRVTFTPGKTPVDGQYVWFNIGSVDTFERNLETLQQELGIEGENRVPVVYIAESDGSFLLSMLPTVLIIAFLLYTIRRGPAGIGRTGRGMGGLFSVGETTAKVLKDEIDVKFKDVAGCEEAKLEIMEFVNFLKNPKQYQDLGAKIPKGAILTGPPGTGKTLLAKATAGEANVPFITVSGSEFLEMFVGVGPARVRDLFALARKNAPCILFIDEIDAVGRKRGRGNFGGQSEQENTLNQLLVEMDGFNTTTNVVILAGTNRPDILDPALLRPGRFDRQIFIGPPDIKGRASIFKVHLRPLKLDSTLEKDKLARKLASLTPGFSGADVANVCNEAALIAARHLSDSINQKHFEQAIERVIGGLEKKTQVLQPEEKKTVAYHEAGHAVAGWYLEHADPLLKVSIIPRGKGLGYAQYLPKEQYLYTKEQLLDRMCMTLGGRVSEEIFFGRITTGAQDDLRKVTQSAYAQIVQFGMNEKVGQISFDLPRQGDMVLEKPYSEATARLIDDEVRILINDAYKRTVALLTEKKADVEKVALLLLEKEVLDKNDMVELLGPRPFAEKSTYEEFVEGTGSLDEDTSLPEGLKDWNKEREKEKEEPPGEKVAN
UniProt O76031, residues 57-633: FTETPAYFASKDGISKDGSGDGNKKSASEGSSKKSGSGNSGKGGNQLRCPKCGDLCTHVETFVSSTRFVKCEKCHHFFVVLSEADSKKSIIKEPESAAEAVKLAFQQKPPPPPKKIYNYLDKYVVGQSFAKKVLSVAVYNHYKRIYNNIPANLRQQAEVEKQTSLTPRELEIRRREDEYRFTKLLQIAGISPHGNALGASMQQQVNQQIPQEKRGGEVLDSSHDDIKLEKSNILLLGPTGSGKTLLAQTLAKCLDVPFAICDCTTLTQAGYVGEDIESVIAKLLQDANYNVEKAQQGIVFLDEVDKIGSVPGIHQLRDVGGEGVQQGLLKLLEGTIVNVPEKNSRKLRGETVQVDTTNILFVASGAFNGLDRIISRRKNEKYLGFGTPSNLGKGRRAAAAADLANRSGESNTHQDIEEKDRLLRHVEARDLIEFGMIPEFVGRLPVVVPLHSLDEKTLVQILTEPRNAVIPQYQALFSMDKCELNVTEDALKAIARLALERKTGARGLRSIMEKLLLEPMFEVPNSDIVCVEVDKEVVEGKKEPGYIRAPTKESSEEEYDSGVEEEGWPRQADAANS
UniProt P14927: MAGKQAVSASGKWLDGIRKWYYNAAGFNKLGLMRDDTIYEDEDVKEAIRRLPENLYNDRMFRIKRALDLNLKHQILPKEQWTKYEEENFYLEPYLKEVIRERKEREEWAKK
UniProt Q96RP9, residues 37-751: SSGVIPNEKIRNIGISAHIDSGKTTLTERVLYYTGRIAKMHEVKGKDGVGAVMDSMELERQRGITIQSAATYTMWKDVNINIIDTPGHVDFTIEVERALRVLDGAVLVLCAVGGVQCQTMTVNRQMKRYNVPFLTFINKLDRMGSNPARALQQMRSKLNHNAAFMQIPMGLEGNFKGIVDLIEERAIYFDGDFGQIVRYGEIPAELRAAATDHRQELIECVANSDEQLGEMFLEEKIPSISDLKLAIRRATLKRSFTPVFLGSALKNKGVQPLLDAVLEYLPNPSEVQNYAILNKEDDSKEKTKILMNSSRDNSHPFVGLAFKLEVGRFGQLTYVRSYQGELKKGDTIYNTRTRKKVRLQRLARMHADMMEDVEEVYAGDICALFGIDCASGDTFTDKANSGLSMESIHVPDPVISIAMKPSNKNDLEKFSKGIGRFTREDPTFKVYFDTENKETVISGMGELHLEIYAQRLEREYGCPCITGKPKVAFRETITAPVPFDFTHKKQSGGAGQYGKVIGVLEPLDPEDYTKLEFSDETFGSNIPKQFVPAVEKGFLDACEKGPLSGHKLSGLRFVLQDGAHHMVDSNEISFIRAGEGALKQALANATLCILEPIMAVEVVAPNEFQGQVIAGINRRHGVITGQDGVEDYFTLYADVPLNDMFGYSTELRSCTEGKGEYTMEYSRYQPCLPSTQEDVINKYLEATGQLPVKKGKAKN
UniProt A4D1E9: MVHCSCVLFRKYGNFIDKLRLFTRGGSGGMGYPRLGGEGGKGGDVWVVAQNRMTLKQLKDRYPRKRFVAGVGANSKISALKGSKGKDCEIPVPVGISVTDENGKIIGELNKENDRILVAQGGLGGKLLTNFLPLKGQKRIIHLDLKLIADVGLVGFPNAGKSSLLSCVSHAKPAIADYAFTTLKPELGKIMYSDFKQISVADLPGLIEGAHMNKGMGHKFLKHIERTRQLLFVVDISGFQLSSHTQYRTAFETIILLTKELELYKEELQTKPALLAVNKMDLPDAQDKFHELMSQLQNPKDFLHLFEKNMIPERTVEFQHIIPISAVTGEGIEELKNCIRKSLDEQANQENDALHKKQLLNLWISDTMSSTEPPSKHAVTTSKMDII
UniProt P00367, residues 54-558: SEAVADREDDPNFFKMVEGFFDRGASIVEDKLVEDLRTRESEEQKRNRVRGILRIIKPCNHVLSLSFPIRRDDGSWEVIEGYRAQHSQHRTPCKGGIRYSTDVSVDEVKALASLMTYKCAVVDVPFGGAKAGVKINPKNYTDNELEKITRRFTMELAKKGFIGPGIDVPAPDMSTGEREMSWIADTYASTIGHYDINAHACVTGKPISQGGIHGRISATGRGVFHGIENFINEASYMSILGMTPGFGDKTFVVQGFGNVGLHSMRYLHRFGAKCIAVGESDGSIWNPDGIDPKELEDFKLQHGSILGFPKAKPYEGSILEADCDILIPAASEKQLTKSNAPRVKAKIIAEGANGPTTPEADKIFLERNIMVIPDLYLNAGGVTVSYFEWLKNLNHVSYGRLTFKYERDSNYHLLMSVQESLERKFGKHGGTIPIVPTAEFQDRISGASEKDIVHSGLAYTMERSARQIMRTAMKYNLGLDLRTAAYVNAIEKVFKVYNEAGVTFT
UniProt O94925, residues 55-669: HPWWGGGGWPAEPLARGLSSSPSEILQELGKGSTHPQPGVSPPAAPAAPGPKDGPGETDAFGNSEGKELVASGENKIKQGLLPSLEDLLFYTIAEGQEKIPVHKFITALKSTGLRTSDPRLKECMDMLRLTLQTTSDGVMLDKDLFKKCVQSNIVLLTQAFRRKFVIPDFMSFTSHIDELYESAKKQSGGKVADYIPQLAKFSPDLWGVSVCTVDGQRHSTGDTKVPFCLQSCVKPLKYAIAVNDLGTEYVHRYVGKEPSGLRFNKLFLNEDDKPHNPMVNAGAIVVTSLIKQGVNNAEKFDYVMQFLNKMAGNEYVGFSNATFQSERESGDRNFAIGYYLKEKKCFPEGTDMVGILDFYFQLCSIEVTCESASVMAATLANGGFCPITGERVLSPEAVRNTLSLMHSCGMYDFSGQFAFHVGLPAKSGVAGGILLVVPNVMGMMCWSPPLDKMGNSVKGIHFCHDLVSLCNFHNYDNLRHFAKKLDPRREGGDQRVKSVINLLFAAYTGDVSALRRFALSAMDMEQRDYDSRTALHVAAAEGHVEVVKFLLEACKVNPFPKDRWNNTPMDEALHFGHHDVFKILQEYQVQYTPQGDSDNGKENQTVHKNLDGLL
UniProt Q9BX68, residues 18-163: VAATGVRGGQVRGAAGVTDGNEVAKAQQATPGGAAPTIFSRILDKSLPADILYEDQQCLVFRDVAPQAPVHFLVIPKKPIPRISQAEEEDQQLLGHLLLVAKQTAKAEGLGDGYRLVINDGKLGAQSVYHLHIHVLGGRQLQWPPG
UniProt O95202, residues 116-739: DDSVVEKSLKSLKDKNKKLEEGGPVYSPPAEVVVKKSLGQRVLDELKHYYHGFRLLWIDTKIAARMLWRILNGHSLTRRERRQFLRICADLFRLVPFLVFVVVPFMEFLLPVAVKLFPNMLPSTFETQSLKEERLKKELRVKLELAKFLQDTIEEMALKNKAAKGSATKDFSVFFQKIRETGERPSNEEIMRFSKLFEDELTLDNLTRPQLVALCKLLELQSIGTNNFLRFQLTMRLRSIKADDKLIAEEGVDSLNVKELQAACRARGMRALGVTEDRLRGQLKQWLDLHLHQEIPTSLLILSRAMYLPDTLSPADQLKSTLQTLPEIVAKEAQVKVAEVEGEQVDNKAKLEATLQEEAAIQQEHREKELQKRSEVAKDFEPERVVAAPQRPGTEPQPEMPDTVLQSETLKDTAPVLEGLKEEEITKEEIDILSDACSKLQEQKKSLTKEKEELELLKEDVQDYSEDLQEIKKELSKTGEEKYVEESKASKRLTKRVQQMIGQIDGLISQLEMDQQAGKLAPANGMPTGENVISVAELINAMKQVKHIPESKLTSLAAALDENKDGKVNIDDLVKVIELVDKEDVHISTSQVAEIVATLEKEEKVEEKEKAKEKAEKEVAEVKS
UniProt P11182, residues 62-482: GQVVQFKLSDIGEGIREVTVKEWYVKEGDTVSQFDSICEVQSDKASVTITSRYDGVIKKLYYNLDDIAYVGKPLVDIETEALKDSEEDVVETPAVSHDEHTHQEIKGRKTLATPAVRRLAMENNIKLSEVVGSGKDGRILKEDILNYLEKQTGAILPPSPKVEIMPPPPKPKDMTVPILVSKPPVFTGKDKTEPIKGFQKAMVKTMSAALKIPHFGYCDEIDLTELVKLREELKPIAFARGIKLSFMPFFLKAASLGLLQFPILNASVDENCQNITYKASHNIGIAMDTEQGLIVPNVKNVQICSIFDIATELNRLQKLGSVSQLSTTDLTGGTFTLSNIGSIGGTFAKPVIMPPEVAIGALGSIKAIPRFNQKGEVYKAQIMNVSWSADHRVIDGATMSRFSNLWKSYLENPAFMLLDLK
UniProt Q9P032: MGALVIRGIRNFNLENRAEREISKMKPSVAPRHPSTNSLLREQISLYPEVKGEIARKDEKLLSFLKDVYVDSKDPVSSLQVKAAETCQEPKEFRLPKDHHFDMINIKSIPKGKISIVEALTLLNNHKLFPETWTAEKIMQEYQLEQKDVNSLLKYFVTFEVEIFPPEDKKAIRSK
UniProt Q9UI09: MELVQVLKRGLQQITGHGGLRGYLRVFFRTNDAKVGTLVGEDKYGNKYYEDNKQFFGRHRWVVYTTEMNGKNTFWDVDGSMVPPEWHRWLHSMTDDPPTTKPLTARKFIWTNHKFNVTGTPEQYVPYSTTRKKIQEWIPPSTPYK
UniProt P19404, residues 33-249: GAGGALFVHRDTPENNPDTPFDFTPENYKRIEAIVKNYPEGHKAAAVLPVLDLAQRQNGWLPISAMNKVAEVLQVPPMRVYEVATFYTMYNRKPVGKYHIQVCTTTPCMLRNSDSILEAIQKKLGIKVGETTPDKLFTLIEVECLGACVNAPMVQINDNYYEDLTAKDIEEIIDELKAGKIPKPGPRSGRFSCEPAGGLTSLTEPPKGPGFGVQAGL
UniProt P56181, residues 35-108: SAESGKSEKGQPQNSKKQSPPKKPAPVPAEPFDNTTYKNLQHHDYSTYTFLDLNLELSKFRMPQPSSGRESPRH
UniProt P31040, residues 43-664: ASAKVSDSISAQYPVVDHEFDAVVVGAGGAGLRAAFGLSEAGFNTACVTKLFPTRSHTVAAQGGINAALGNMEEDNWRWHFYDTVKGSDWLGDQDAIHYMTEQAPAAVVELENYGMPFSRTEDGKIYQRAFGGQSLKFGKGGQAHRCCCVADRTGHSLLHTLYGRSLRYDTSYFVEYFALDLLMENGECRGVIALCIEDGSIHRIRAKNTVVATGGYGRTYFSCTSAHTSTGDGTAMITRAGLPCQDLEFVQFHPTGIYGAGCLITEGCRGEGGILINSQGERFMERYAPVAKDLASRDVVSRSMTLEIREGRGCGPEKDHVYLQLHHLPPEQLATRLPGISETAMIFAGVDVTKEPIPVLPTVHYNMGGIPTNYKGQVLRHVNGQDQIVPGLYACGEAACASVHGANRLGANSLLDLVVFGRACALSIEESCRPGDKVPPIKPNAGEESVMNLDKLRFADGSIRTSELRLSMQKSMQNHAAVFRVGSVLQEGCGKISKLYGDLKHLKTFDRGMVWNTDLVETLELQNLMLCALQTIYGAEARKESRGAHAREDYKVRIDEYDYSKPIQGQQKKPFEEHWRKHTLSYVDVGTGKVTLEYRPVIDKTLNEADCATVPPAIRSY

B1: Delta(3,5)-Delta(2,4)-dienoyl-CoA isomerase, mitochondrial (protein, UniProt Q13011 34-328)
chain: TGSSAQEEASGVALGEAPDHSYESLRVTSAQKHVLHVQLNRPNKRNAMNKVFWREMVECFNKISRDADCRAVVISGAGKMFTAGIDLMDMASDILQPKGDDVARISWYLRDIITRYQETFNVIERCPKPVIAAVHGGCIGGGVDLVTACDIRYCAQDAFFQVKEVDVGLAADVGTLQRLPKVIGNQSLVNELAFTARKMMADEALGSGLVSRVFPDKEVMLDAALALAAEISSKSPVAVQSTKVNLLYSRDHSVAESLNYVASWNMSMLQTQDLVKSVQATTENKELKTVTFSKL
B2: Acyl-coenzyme A thioesterase 1 (protein, UniProt Q86TX2 1-421)
chain: MAATLILEPAGRCCWDEPVRIAVRGLAPEQPVTLRASLRDEKGALFQAHARYRADTLGELDLERAPALGGSFAGLEPMGLLWALEPEKPLVRLVKRDVRTPLAVELEVLDGHDPDPGRLLCRVRHERYFLPPGVRREPVRAGRVRGTLFLPPEPGPFPGIVDMFGTGGGLLEYRASLLAGKGFAVMALAYYNYEDLPKTMETLHLEYFEEAVNYLLSHPEVKGPGVGLLGISKGGELCLSMASFLKGITAAVVINGSVANVGGTLRYKGETLPPVGVNRNRIKVTKDGYADIVDVLNSPLEGPDQKSFIPVERAESTFLFLVGQDDHNWKSEFYANEACKRLQAHGRRKPQIICYPETGHYIEPPYFPLCRASLHALVGSPIIWGGEPRAHAMAQVDAWKQLQTFFHKHLGGHEGTIPSKV
B3: 3-hydroxyacyl-CoA dehydrogenase type-2 (protein, UniProt Q99714 1-261)
chain: MAAACRSVKGLVAVITGGASGLGLATAERLVGQGASAVLLDLPNSGGEAQAKKLGNNCVFAPADVTSEKDVQTALALAKGKFGRVDVAVNCAGIAVASKTYNLKKGQTHTLEDFQRVLDVNLMGTFNVIRLVAGEMGQNEPDQGGQRGVIINTASVAAFEGQVGQAAYSASKGGIVGMTLPIARDLAPIGIRVMTIAPGLFGTPLLTSLPEKVCNFLASQVPFPSRLGDPAEYAHLVQAIIENPFLNGEVIRLDGAIRMQP
B4: Isoleucine—tRNA ligase, mitochondrial (protein, UniProt Q9NSE4 49-1012)
chain: SNHQPNSNSGRYRDTVLLPQTSFPMKLLGRQQPDTELEIQQKCGFSELYSWQRERKVKTEFCLHDGPPYANGDPHVGHALNKILKDIANRFHMMNGSKIHFVPGWDCHGLPIEIKVLSELGREAQNLSAMEIRKKARSFAKAAIEKQKSAFIRWGIMADWNNCYYTFDGKYEAKQLRTFYQMYDKGLVYRSYKPVFWSPSSRTALAEAELEYNPEHVSRSIYVKFPLLKPSPKLASLIDGSSPVSILVWTTQPWTIPANEAVCYMPESKYAVVKCSKSGDLYVLAADKVASVASTLETTFETISTLSGVDLENGTCSHPLIPDKASPLLPANHVTMAKGTGLVHTAPAHGMEDYGVASQHNLPMDCLVDEDGVFTDVAGPELQNKAVLEEGTDVVIKMLQTAKNLLKEEKLVHSYPYDWRTKKPVVIRASKQWFINITDIKTAAKELLKKVKFIPGSALNGMVEMMDRRPYWCISRQRVWGVPIPVFHHKTKDEYLINSQTTEHIVKLVEQHGSDIWWTLPPEQLLPKEVLSEVGGPDALEYVPGQDILDIWFDSGTSWSYVLPGPDQRADLYLEGKDQLGGWFQSSLLTSVAARKRAPYKTVIVHGFTLGEKGEKMSKSLGNVIHPDVVVNGGQDQSKEPPYGADVLRWWVADSNVFTEVAIGPSVLNAARDDISKLRNTLRFLLGNVADFNPETDSIPVNDMYVIDQYMLHLLQDLANKITELYKQYDFGKVVRLLRTFYTRELSNFYFSIIKDRLYCEKENDPKRRSCQTALVEILDVIVRSFAPILPHLAEEVFQHIPYIKEPKSVFRTGWISTSSIWKKPGLEEAVESACAMRDSFLGSIPGKNAAEYKVITVIEPGLLFEIIEMLQSEETSSTSQLNELMMASESTLLAQEPREMTADVIELKGKFLINLEGGDIREESSYKVIVMPTTKEKCPRCWKYTAESSDTLCPRCAEVVSGK
B5: Mitochondrial ribonuclease P protein 1 (protein, UniProt Q7L0Y3 40-403)
chain: MSSKIPAVTYPKNESTPPSEELELDKWKTTMKSSVQEECVSTISSSKDEDPLAATREFIEMWRLLGREVPEHITEEELKTLMECVSNTAKKKYLKYLYTKEKVKKARQIKKEMKAAAREEAKNIKLLETTEEDKQKNFLFLRLWDRNMDIAMGWKGAQAMQFGQPLVFDMAYENYMKRKELQNTVSQLLESEGWNRRNVDPFHIYFCNLKIDGALHRELVKRYQEKWDKLLLTSTEKSHVDLFPKDSIIYLTADSPNVMTTFRHDKVYVIGSFVDKSMQPGTSLAKAKRLNLATECLPLDKYLQWEIGNKNLTLDQMIRILLCLKNNGNWQEALQFVPKRKHTGFLEISQHSQEFINRLKKAKT
B6: Pyrroline-5-carboxylate reductase 1, mitochondrial (protein, UniProt P32322 1-319)
chain: MSVGFIGAGQLAFALAKGFTAAGVLAAHKIMASSPDMDLATVSALRKMGVKLTPHNKETVQHSDVLFLAVKPHIIPFILDEIGADIEDRHIVVSCAAGVTISSIEKKLSAFRPAPRVIRCMTNTPVVVREGATVYATGTHAQVEDGRLMEQLLSSVGFCTEVEEDLIDAVTGLSGSGPAYAFTALDALADGGVKMGLPRRLAVRLGAQALLGAAKMLLHSEQHPGQLKDNVSSPGGATIHALHVLESGGFRSLLINAVEASCIRTRELQSMADQEQVSPAAIKKTILDKVKLDSPAGTALSPSGHTKLLPRSLAPAGKD
B7: Glycine amidinotransferase, mitochondrial (protein, UniProt P50440 44-423)
chain: ASSRNSCAADDKATEPLPKDCPVSSYNEWDPLEEVIVGRAENACVPPFTIEVKANTYEKYWPFYQKQGGHYFPKDHLKKAVAEIEEMCNILKTEGVTVRRPDPIDWSLKYKTPDFESTGLYSAMPRDILIVVGNEIIEAPMAWRSRFFEYRAYRSIIKDYFHRGAKWTTAPKPTMADELYNQDYPIHSVEDRHKLAAQGKFVTTEFEPCFDAADFIRAGRDIFAQRSQVTNYLGIEWMRRHLAPDYRVHIISFKDPNPMHIDATFNIIGPGIVLSNPDRPCHQIDLFKKAGWTIITPPTPIIPDDHPLWMSSKWLSMNVLMLDEKRVMVDANEVPIQKMFEKLGITTIKVNIRNANSLGGGFHCWTCDVRRRGTLQSYLD

Target: T1, SHMT2-BirA*-Flag (mouse)
Assay: proximity labelling; BioID in HeLa cells with Tet-induced SHMT2-BirA*-Flag; biotinylated proteins purified on immobilized streptavidin, trypsin digestion, MS; compared with BirA*-Flag alone and CHCHD2-BirA*-Flag (n = 3; >32-fold, p <0.05)

| binding | Molecule |
| --- | --- |
| binds | 3-oxoacyl-[acyl-carrier-protein] synthase, mitochondrial (from UniProt Q9NWU1 28-459) |
| binds | 10 kDa heat shock protein, mitochondrial (from UniProt P61604 1-102) |
| binds | AFG3-like protein 2 (from UniProt Q9Y4W6 67-797) |
| binds | ATP-dependent Clp protease ATP-binding subunit clpX-like, mitochondrial (from UniProt O76031 57-633) |
| binds | Acyl-coenzyme A thioesterase 2, mitochondrial (human (endogenous in HeLa)) |
| binds | Cysteine desulfurase, mitochondrial (human (endogenous in HeLa)) |
| binds | Cytochrome b-c1 complex subunit 7 (from UniProt P14927 1-111) |
| binds | Elongation factor G, mitochondrial (from UniProt Q96RP9 37-751) |
| binds | FAST kinase domain-containing protein 2 (human (endogenous in HeLa)) |
| binds | GTP-binding protein 10 (from UniProt A4D1E9 1-387) |
| binds | Glutamate dehydrogenase, mitochondrial (from UniProt P00367 54-558) |
| binds | Glutaminase kidney isoform, mitochondrial (from UniProt O94925 55-669) |
| binds | Histidine triad nucleotide-binding protein 2, mitochondrial (from UniProt Q9BX68 18-163) |
| binds | Iron-sulfur cluster assembly enzyme ISCU, mitochondrial (from UniProt Q9H1K1 35-167) |
| binds | LETM1 and EF-hand domain-containing protein 1, mitochondrial (from UniProt O95202 116-739) |
| binds | Lipoamide acyltransferase component of branched-chain alpha-keto acid dehydrogenase complex, mitochondrial (from UniProt P11182 62-482) |

| binding | Molecule |
| --- | --- |
| binds | Mimitin, mitochondrial (human (endogenous in HeLa)) |
| binds | Mitochondrial import inner membrane translocase subunit TIM44 (human (endogenous in HeLa)) |
| binds | NADH dehydrogenase [ubiquinone] 1 alpha subcomplex assembly factor 4 (from UniProt Q9P032 1-175) |
| binds | NADH dehydrogenase [ubiquinone] 1 alpha subcomplex subunit 12 (from UniProt Q9UI09 1-145) |
| binds | NADH dehydrogenase [ubiquinone] flavoprotein 2, mitochondrial (from UniProt P19404 33-249) |
| binds | NADH dehydrogenase [ubiquinone] flavoprotein 3, mitochondrial (from UniProt P56181 35-108) |
| binds | NDUFS6 (from UniProt O75380 29-124) |
| binds | Succinate dehydrogenase [ubiquinone] flavoprotein subunit, mitochondrial (from UniProt P31040 43-664) |
| binds | B1 |
| binds | B2 |
| binds | B3 |
| binds | B4 |
| binds | B5 |
| binds | B6 |
| binds | B7 |

— PMC7480864
